Data: PubChem BioAssay AID504834 (National Center for Advancing Translational Sciences (NCATS), 2011)
About 22,000 (6.9%) of roughly 320,000 compounds were called active. The shares of active, inactive and inconclusive entries below differ from those in the screen. The call rests on the fitted dose curve; in most records, active means well fitted inhibition curve with a large enough effect; inconclusive means small, poorly fitted or top-dose-only effect, or another doubt; inactive means no such curve, though single readings can be large or run the other way. A potency beside an inconclusive call is a rough fit, not a confirmed value.

Assay: Primary qHTS for delayed death inhibitors of the malarial parasite plastid, 96 hour incubation
Conditions: P. falciparum luciferase reporter growth; series mostly up to 28.7 µM
In short: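 96 h incubation, 37 C, 5% CO2, of luciferase-reporter P. falciparum-infected RBCs (2% hematocrit, 0.05% parasitemia final) with test compounds; endpoint luminescence.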
Potency means the concentration at half of the fitted maximal effect.

SMILES | Potency
COc1ccc(N=c2cc(-c3ccc(O)cc3)oc3ccccc23)cc1 | inconclusive: 2.94 µM [inhibitor, full curve, poor fit]
CCOC(=O)C1CCN(C(=O)c2cc3ccccc3oc2=O)CC1 | inactive
Cc1ccc(NC(=O)c2nc(S(=O)(=O)Cc3ccccc3C)ncc2Cl)cc1C | inconclusive: 18.5 µM [inhibitor, single point]
CC(=O)c1ccccc1NC(=O)COC(=O)c1ccc2c(c1)nc(C)n2-c1ccccc1 | inconclusive: 11.7 µM [inhibitor, single point]
COc1cc(O)ccc1C(=O)CCc1ccc(O)cc1 | inconclusive: 11.7 µM [inhibitor, single point]
Cc1ccc(/C=C(\NC(=O)c2ccccc2)C(=O)NC2CCN(Cc3ccccc3)CC2)o1 | inactive
CCOc1ccc(-c2nnc(-c3ccc(OC)cc3)o2)cc1 | inactive
OC(COc1ccc(Cl)cc1)CN1C2=NCCCN2c2ccccc21 (configuration not stated) | inconclusive: 18.5 µM [inhibitor, single point]
COc1ccc(S(=O)(=O)N2CCC(C(=O)Nc3cccc(C(C)=O)c3)CC2)cc1 | inconclusive: 18.5 µM [inhibitor, single point]
COc1ccc(S(N)(=O)=O)cc1C(=O)OCCCC(=O)c1ccccc1 | active: 14.7 µM
CC(C)CC1Nc2ncnc(N3CCN(c4ccccc4)CC3)c2N(Cc2ccc(Cl)cc2)C1=O (configuration not stated) | active: 9.28 µM
COc1cccc(/C=N/Nc2ccc(S(=O)(=O)O)cc2)c1O | inactive
Cc1ccc(-c2nnn(CC(=O)N(CC3CCCO3)C(C(=O)NC(C)(C)C)c3ccc(F)cc3)n2)o1 (configuration not stated) | active: 11.7 µM
O=C(CC(c1ccccc1)c1ccccc1)Nc1ccc(C(=O)O)cc1 | inactive
Cc1ccc(S(=O)(=O)N(CC(=O)Nc2cccc(C)c2C)C(=O)N2CCN(C)CC2)cc1 | inactive
CCOC(=O)NN1C(=O)c2ccccc2NC1c1cccc(O)c1 (configuration not stated) | inactive
COc1ccccc1N1CCN(S(=O)(=O)c2cnc[nH]2)CC1 | inactive
Cc1cccc(C(=O)NCCN2CCOCC2)c1[N+](=O)[O-] | inactive
O=C(Cc1ccc2c(c1)OCCO2)N1CCN(S(=O)(=O)c2ccccc2C(F)(F)F)CC1 | inconclusive: 9.28 µM [inhibitor, partial curve, poor fit]
O=C(CSc1ccc(-c2ccccn2)nn1)Nc1ccc(F)cc1F | inconclusive: 18.5 µM [inhibitor, single point]
O=C(NCCN1CCN(Cc2ccccc2)CC1)Nc1cc(Cl)cc(Cl)c1 | inconclusive: 1.04 µM [inhibitor, partial curve]
CC1=C[C@@H](O)CC(C)(C)[C@@H]1/C=C/C(C)=C/C=C/C(C)=C/C=C/C=C(C)/C=C/C=C(C)/C=C/C1=C(C)C[C@H](O)CC1(C)C | active: 4.26 µM
COc1ccc(Nc2nc3ccccc3c(=O)[nH]2)cc1 | active: 4.65 µM
O=C(Nc1nccs1)C1CCCN(S(=O)(=O)c2cccc3cccnc23)C1 (configuration not stated) | inconclusive: 9.28 µM [inhibitor, partial curve, poor fit]

SMILES | Potency
O=C(CSC(=S)N1CCCC1)c1cc(Br)cc(Br)c1O | inactive
COc1ccccc1/C=C1\SC(=S)N(CCC(=O)Nc2nnc(C)s2)C1=O | inconclusive: 6.57 µM [inhibitor, partial curve]
Cc1ccc(CNC(=O)C2CC(c3cc(C(F)(F)F)cc(C(F)(F)F)c3)=NO2)o1 (configuration not stated) | inactive
COc1ccc(C(=O)n2nc(-c3ccco3)nc2SC)cc1OC | inconclusive: 5.86 µM [inhibitor, partial curve]
COc1ccccc1N1C(=O)CC(N2CCc3ccccc32)C1=O (configuration not stated) | inactive
Cc1ccccc1Cn1c(=O)n(Cc2ccco2)c(=O)c2ccccc21 | inactive
Cc1c(Br)cc(C(=O)NC2CCCCC2)c(C)c1C | inconclusive: 0.0928 µM [inhibitor, full curve, poor fit]
CC1(C)C2CC=C(/C=N/NC(=S)NCCc3ccccc3)C1C2 (configuration not stated) | active: 1.47 µM
CC(=O)Nc1ccc(NC(=O)C2CCC(N3C(=O)C4C5C=CC(C6CC56)C4C3=O)CC2)cc1 (configuration not stated) | inactive
CC1Cc2ccccc2N1C(=O)C1CCN(S(=O)(=O)c2cccs2)CC1 (configuration not stated) | active: 0.928 µM
Cc1ccc(S(=O)(=O)N2CCCN(C(=O)c3ccc(-n4cccn4)cc3)CC2)cc1 | inconclusive: 7.38 µM [inhibitor, partial curve, poor fit]
Cc1c(Cl)cccc1NC(=S)NCCc1ccc(F)cc1 | active: 13.1 µM
COc1cc(C(=O)ONC(=O)c2ccc(OC(F)F)cc2)cc(OC)c1OC | inconclusive: 5.22 µM [inhibitor, single point]
CC(C)n1nc(C(=O)OCC(=O)N(C)C2CCS(=O)(=O)C2)c2ccccc2c1=O (configuration not stated) | inactive
Cc1ccccc1SC1CCN(Cc2nc(C3CC3)no2)CC1 | inconclusive: 6.57 µM [inhibitor, partial curve, poor fit]
COc1ccc(CNC(=O)c2ccc(Cn3cc(Cl)cn3)o2)cc1 | inactive
COc1ccc(N2C(=O)CSC2c2ccc(F)cc2)cc1 (configuration not stated) | inconclusive: 1.65 µM [inhibitor, full curve]
COC(=O)c1ccc(Oc2nc(Nc3ccc(F)cc3)nc(N3CCCC3)n2)cc1 | inconclusive: 2.08 µM [inhibitor, partial curve, poor fit]
COc1ccccc1Oc1ccc(NC(=O)c2ccc(Cl)cc2)cc1 | inconclusive: 18.5 µM [inhibitor, single point]
COc1cccc(N(CC(=O)Nc2ccccc2C)S(C)(=O)=O)c1 | inconclusive: 10.4 µM [inhibitor, single point]
CC(C)(C)c1cc(C(=O)NC2CC2)n(Cc2ccc(F)cc2)n1 | inconclusive: 11.7 µM [inhibitor, partial curve, poor fit]
CCn1cc(/C=C(\NC(=O)c2ccccc2OC)C(=O)NCCCN2CCOCC2)c2ccccc21 | active: 9.28 µM
O=C(OCC(=O)N1CCC(c2ccccc2)=N1)c1ccc([N+](=O)[O-])s1 | inconclusive: 13.1 µM [inhibitor, single point]
Cc1cc2c(=O)n(Cc3ccco3)c(SCC(=O)c3ccc(Cl)s3)nc2s1 | inactive

SMILES | Potency
CCOC(=O)C(NC(=O)c1cccc(Cl)c1)(OCc1ccc(F)cc1)C(F)(F)F (configuration not stated) | inconclusive: 0.828 µM [inhibitor, full curve, poor fit]
O=C1CCN(Cc2ccc([N+](=O)[O-])cc2)CCN1CCO | inactive
CCOc1ccc(NC(=O)N2CCN(C(=O)c3ccco3)CC2)cc1 | inactive
Cc1ccc(-n2c(SCC(=O)N3CCOCC3)nc(O)cc2=O)cc1 | inconclusive: 18.5 µM [inhibitor, single point]
O=C(CCS(=O)(=O)c1ccc(Br)cc1)N1CCC2(CC1)OCCO2 | inconclusive: 0.0928 µM [inhibitor, full curve, poor fit]
CC(=O)c1ccc(N(CC(=O)NC2CCS(=O)(=O)C2)S(=O)(=O)c2ccc(Cl)cc2)cc1 (configuration not stated) | inactive
Cc1ccc2nc(NC(=O)CSCc3ccccc3)sc2c1 | inconclusive: 5.86 µM [inhibitor, partial curve, poor fit]
Cc1ccccc1NC(=S)N/N=C/c1ccc(O)cc1O | inconclusive: 2.94 µM [inhibitor, single point]
O=C(c1ccc([N+](=O)[O-])cc1)N1CCN(Cc2ccccc2)CC1 | inactive
CCc1ccc(N(C(=O)c2csnn2)C(C(=O)NC2CCCCC2)c2cccnc2)cc1 (configuration not stated) | inconclusive: 10.4 µM [inhibitor, partial curve, poor fit]
CCOCCn1c(SCc2ccc(F)cc2)nc2c1c(=O)[nH]c(=O)n2C | inconclusive: 13.1 µM [inhibitor, single point]
CCN(CC(=O)Nc1ccc(NC(C)=O)cc1)C(=O)CSCC(=O)Nc1ccc(C)cc1 | inactive
CCOC(=O)c1ccc(NC(=O)c2c(Cl)cc(C)nc2C)cc1 | inconclusive: 9.28 µM [inhibitor, partial curve, poor fit]
CCSc1cc(C)nc2c(-c3ccccc3)c(C)nn12 | inconclusive: 5.86 µM [inhibitor, single point]
Cc1ccc2c(c1)NCCO2 | inconclusive: 18.5 µM [inhibitor, single point]
Cc1onc(-c2ccccc2)c1-c1csc(COc2ccccc2)n1 | inconclusive: 10.4 µM [inhibitor, partial curve]
O=[N+]([O-])c1cc(S(=O)(=O)N2CCOCC2)ccc1OCc1cccc(Cl)c1 | inconclusive: 11.7 µM [inhibitor, single point]
CC(C)c1ccc(CCNC(=O)CCNS(=O)(=O)c2ccc(Br)cc2)cc1 | inconclusive: 11.7 µM [inhibitor, single point]
CCOc1ccc(CSC(=N)N)cc1 | inconclusive: 18.5 µM [inhibitor, single point]
COc1ccc(/C=N/Nc2nc(-c3cccnc3)nc3ccccc23)cc1OC | inconclusive: 11.7 µM [inhibitor, single point]
Cc1cc2oc(=O)cc(CN3CCOCC3)c2cc1Cl | inactive
O=S(=O)(c1ccc(Cl)cc1)N1CCC(N2CCOCC2)CC1 | inconclusive: 1.65 µM [inhibitor, partial curve, poor fit]
CCOC(=O)NC(=O)CSc1nnc(C2CC2)n1Cc1ccco1 | inactive
Cc1nc(CCNC(=O)CC2C(=O)NCCN2Cc2ccoc2)nc2c1CCCC2 (configuration not stated) | inconclusive: 18.5 µM [inhibitor, single point]

An excerpt of these results, comma-delimited:
SMILES,Potency
CCSc1cc(C)nc2c(-c3ccccc3)c(C)nn12,"inconclusive: 5.86 µM [inhibitor, single point]"
Cc1ccc2c(c1)NCCO2,"inconclusive: 18.5 µM [inhibitor, single point]"
Cc1onc(-c2ccccc2)c1-c1csc(COc2ccccc2)n1,"inconclusive: 10.4 µM [inhibitor, partial curve]"
O=[N+]([O-])c1cc(S(=O)(=O)N2CCOCC2)ccc1OCc1cccc(Cl)c1,"inconclusive: 11.7 µM [inhibitor, single point]"
CC(C)c1ccc(CCNC(=O)CCNS(=O)(=O)c2ccc(Br)cc2)cc1,"inconclusive: 11.7 µM [inhibitor, single point]"
CCOc1ccc(CSC(=N)N)cc1,"inconclusive: 18.5 µM [inhibitor, single point]"
COc1ccc(/C=N/Nc2nc(-c3cccnc3)nc3ccccc23)cc1OC,"inconclusive: 11.7 µM [inhibitor, single point]"
